Results are given in words; binding and its absence hold for the method and conditions named. In cells and extracts the contact can be indirect. These calls come from enrichment with a bait or labelling near it, and not all partners need be listed.
B1: dopamine beta hydroxylase (protein, UniProt P09172 1-617)
chain: MPALSRWASLPGPSMREAAFMYSTAVAIFLVILVAALQGSAPRESPLPYHIPLDPEGSLELSWNVSYTQEAIHFQLLVRRLKAGVLFGMSDRGELENADLVVLWTDGDTAYFADAWSDQKGQIHLDPQQDYQLLQVQRTPEGLTLLFKRPFGTCDPKDYLIEDGTVHLVYGILEEPFRSLEAINGSGLQMGLQRVQLLKPNIPEPELPSDACTMEVQAPNIQIPSQETTYWCYIKELPKGFSRHHIIKYEPIVTKGNEALVHHMEVFQCAPEMDSVPHFSGPCDSKMKPDRLNYCRHVLAAWALGAKAFYYPEEAGLAFGGPGSSRYLRLEVHYHNPLVIEGRNDSSGIRLYYTAKLRRFNAGIMELGLVYTPVMAIPPRETAFILTGYCTDKCTQLALPPSGIHIFASQLHTHLTGRKVVTVLVRDGREWEIVNQDNHYSPHFQEIRMLKKVVSVHPGDVLITSCTYNTEDRELATVGGFGILEEMCVNYVHYYPQTQLELCKSAVDAGFLQKYFHLINRFNNEDVCTCPQASVSQQFTSVPWNSFNRDVLKALYSFAPISMHCNKSSAVRFQGEWNLQPLPKVISTLEEPTPQCPTSQGRSPAGPTVVSIGGGKG
B2: GIGYF2/PARK11 (protein, UniProt Q6Y7W6 1-1299)
chain: MAAETQTLNFGPEWLRALSSGGSITSPPLSPALPKYKLADYRYGREEMLALFLKDNKIPSDLLDKEFLPILQEEPLPPLALVPFTEEEQRNFSMSVNSAAVLRLTGRGGGGTVVGAPRGRSSSRGRGRGRGECGFYQRSFDEVEGVFGRGGGREMHRSQSWEERGDRRFEKPGRKDVGRPNFEEGGPTSVGRKHEFIRSESENWRIFREEQNGEDEDGGWRLAGSRRDGERWRPHSPDGPRSAGWREHMERRRRFEFDFRDRDDERGYRRVRSGSGSIDDDRDSLPEWCLEDAEEEMGTFDSSGAFLSLKKVQKEPIPEEQEMDFRPVDEGEECSDSEGSHNEEAKEPDKTNKKEGEKTDRVGVEASEETPQTSSSSARPGTPSDHQSQEASQFERKDEPKTEQTEKAEEETRMENSLPAKVPSRGDEMVADVQQPLSQIPSDTASPLLILPPPVPNPSPTLRPVETPVVGAPGMGSVSTEPDDEEGLKHLEQQAEKMVAYLQDSALDDERLASKLQEHRAKGVSIPLMHEAMQKWYYKDPQGEIQGPFNNQEMAEWFQAGYFTMSLLVKRACDESFQPLGDIMKMWGRVPFSPGPAPPPHMGELDQERLTRQQELTALYQMQHLQYQQFLIQQQYAQVLAQQQKAALSSQQQQQLALLLQQFQTLKMRISDQNIIPSVTRSVSVPDTGSIWELQPTASQPTVWEGGSVWDLPLDTTTPGPALEQLQQLEKAKAAKLEQERREAEMRAKREEEERKRQEELRRQQEEILRRQQEEERKRREEEELARRKQEEALRRQREQEIALRRQREEEERQQQEEALRRLEERRREEEERRKQEELLRKQEEEAAKWAREEEEAQRRLEENRLRMEEEAARLRHEEEERKRKELEVQRQKELMRQRQQQQEALRRLQQQQQQQQLAQMKLPSSSTWGQQSNTTACQSQATLSLAEIQKLEEERERQLREEQRRQQRELMKALQQQQQQQQQKLSGWGNVSKPSGTTKSLLEIQQEEARQMQKQQQQQQQHQQPNRARNNTHSNLHTSIGNSVWGSINTGPPNQWASDLVSSIWSNADTKNSNMGFWDDAVKEVGPRNSTNKNKNNASLSKSVGVSNRQNKKVEEEEKLLKLFQGVNKAQDGFTQWCEQMLHALNTANNLDVPTFVSFLKEVESPYEVHDYIRAYLGDTSEAKEFAKQFLERRAKQKANQQRQQQQLPQQQQQQPPQQPPQQPQQQDSVWGMNHSTLHSVFQTNQSNNQQSNFEAVQSGKKKKKQKMVRADPSLLGFSVNASSERLNMGEIETLDDY
B3: COG2 (protein, UniProt Q14746 1-738)
chain: MEKSRMNLPKGPDTLCFDKDEFMKEDFDVDHFVSDCRKRVQLEELRDDLELYYKLLKTAMVELINKDYADFVNLSTNLVGMDKALNQLSVPLGQLREEVLSLRSSVSEGIRAVDERMSKQEDIRKKKMCVLRLIQVIRSVEKIEKILNSQSSKETSALEASSPLLTGQILERIATEFNQLQFHAVQSKGMPLLDKVRPRIAGITAMLQQSLEGLLLEGLQTSDVDIIRHCLRTYATIDKTRDAEALVGQVLVKPYIDEVIIEQFVESHPNGLQVMYNKLLEFVPHHCRLLREVTGGAISSEKGNTVPGYDFLVNSVWPQIVQGLEEKLPSLFNPGNPDAFHEKYTISMDFVRRLERQCGSQASVKRLRAHPAYHSFNKKWNLPVYFQIRFREIAGSLEAALTDVLEDAPAESPYCLLASHRTWSSLRRCWSDEMFLPLLVHRLWRLTLQILARYSVFVNELSLRPISNESPKEIKKPLVTGSKEPSITQGNTEDQGSGPSETKPVVSISRTQLVYVVADLDKLQEQLPELLEIIKPKLEMIGFKNFSSISAALEDSQSSFSACVPSLSSKIIQDLSDSCFGFLKSALEVPRLYRRTNKEVPTTASSYVDSALKPLFQLQSGHKDKLKQAIIQQWLEGTLSESTHKYYETVSDVLNSVKKMEESLKRLKQARKTTPANPVGPSGGMSDDDKIRLQLALDVEYLGEQIQKLGLQASDIKSFSALAELVAAAKDQATAEQP
B4: COG4 (protein, UniProt Q9H9E3 1-785)
chain: MADLDSPPKLSGVQQPSEGVGGGRCSEISAELIRSLTELQELEAVYERLCGEEKVVERELDALLEQQNTIESKMVTLHRMGPNLQLIEGDAKQLAGMITFTCNLAENVSSKVRQLDLAKNRLYQAIQRADDILDLKFCMDGVQTALRSEDYEQAAAHTHRYLCLDKSVIELSRQGKEGSMIDANLKLLQEAEQRLKAIVAEKFAIATKEGDLPQVERFFKIFPLLGLHEEGLRKFSEYLCKQVASKAEENLLMVLGTDMSDRRAAVIFADTLTLLFEGIARIVETHQPIVETYYGPGRLYTLIKYLQVECDRQVEKVVDKFIKQRDYHQQFRHVQNNLMRNSTTEKIEPRELDPILTEVTLMNARSELYLRFLKKRISSDFEVGDSMASEEVKQEHQKCLDKLLNNCLLSCTMQELIGLYVTMEEYFMRETVNKAVALDTYEKGQLTSSMVDDVFYIVKKCIGRALSSSSIDCLCAMINLATTELESDFRDVLCNKLRMGFPATTFQDIQRGVTSAVNIMHSSLQQGKFDTKGIESTDEAKMSFLVTLNNVEVCSENISTLKKTLESDCTKLFSQGIGGEQAQAKFDSCLSDLAAVSNKFRDLLQEGLTELNSTAIKPQVQPWINSFFSVSHNIEEEEFNDYEANDPWVQQFILNLEQQMAEFKASLSPVIYDSLTGLMTSLVAVELEKVVLKSTFNRLGGLQFDKELRSLIAYLTTVTTWTIRDKFARLSQMATILNLERVTEILDYWGPNSGPLTWRLTPAEVRQVLALRIDFRSEDIKRLRL
B5: COG7 (protein, UniProt P83436 1-770)
chain: MDFSKFLADDFDVKEWINAAFRAGSKEAASGKADGHAATLVMKLQLFIQEVNHAVEETSHQALQNMPKVLRDVEALKQEASFLKEQMILVKEDIKKFEQDTSQSMQVLVEIDQVKSRMQLAAESLQEADKWSTLSADIEETFKTQDIAVISAKLTGMQNSLMMLVDTPDYSEKCVHLEALKNRLEALASPQIVAAFTSQAVDQSKVFVKVFTEIDRMPQLLAYYYKCHKVQLLAAWQELCQSDLSLDRQLTGLYDALLGAWHTQIQWATQVFQKPHEVVMVLLIQTLGALMPSLPSCLSNGVERAGPEQELTRLLEFYDATAHFAKGLEMALLPHLHEHNLVKVTELVDAVYDPYKPYQLKYGDMEESNLLIQMSAVPLEHGEVIDCVQELSHSVNKLFGLASAAVDRCVRFTNGLGTCGLLSALKSLFAKYVSDFTSTLQSIRKKCKLDHIPPNSLFQEDWTAFQNSIRIIATCGELLRHCGDFEQQLANRILSTAGKYLSDSCSPRSLAGFQESILTDKKNSAKNPWQEYNYLQKDNPAEYASLMEILYTLKEKGSSNHNLLAAPRAALTRLNQQAHQLAFDSVFLRIKQQLLLISKMDSWNTAGIGETLTDELPAFSLTPLEYISNIGQYIMSLPLNLEPFVTQEDSALELALHAGKLPFPPEQGDELPELDNMADNWLGSIARATMQTYCDAILQIPELSPHSAKQLATDIDYLINVMDALGLQPSRTLQHIVTLLKTRPEDYRQVSKGLPRRLATTVATMRSVNY

Sequences of proteins named here, by UniProt entry; tags and fusion partners are left off.
UniProt Q04656: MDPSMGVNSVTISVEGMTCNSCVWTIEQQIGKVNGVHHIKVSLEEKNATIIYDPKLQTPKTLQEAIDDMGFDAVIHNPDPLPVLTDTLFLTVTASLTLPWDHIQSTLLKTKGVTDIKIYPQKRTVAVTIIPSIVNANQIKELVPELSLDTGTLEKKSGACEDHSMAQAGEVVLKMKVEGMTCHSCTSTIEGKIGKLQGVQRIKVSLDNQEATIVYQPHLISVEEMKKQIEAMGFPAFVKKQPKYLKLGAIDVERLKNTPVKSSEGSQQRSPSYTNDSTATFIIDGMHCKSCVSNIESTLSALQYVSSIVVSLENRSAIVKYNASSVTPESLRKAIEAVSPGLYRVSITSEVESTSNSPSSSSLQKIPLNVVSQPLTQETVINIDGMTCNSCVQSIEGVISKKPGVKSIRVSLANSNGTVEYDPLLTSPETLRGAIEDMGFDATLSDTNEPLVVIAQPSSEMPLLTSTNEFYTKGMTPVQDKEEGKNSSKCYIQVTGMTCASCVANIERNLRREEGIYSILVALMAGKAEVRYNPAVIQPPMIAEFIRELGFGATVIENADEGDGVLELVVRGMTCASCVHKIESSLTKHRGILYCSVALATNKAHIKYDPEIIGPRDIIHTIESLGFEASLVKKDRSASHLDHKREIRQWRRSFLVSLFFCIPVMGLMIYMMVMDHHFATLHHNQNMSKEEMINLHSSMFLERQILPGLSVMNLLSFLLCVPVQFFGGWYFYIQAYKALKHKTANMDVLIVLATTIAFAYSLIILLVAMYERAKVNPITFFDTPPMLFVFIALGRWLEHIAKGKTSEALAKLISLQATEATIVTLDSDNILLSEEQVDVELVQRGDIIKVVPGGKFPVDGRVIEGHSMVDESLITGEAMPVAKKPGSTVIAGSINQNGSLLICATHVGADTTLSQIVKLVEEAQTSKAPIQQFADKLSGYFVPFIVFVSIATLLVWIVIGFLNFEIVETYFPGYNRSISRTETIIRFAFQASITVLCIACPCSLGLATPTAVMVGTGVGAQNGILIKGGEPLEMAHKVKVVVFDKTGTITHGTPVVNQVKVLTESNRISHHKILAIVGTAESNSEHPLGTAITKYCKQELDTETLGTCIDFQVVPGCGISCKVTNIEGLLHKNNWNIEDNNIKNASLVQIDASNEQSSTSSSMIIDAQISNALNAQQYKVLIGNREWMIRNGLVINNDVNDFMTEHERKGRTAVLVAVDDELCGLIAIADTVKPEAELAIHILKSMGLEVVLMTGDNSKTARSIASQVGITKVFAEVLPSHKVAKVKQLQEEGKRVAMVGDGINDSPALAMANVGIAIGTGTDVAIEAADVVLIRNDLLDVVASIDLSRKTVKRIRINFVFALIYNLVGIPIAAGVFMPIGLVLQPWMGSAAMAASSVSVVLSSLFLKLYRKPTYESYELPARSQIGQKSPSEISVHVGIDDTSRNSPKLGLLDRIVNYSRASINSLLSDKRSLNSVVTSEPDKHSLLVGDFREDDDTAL
UniProt P46459: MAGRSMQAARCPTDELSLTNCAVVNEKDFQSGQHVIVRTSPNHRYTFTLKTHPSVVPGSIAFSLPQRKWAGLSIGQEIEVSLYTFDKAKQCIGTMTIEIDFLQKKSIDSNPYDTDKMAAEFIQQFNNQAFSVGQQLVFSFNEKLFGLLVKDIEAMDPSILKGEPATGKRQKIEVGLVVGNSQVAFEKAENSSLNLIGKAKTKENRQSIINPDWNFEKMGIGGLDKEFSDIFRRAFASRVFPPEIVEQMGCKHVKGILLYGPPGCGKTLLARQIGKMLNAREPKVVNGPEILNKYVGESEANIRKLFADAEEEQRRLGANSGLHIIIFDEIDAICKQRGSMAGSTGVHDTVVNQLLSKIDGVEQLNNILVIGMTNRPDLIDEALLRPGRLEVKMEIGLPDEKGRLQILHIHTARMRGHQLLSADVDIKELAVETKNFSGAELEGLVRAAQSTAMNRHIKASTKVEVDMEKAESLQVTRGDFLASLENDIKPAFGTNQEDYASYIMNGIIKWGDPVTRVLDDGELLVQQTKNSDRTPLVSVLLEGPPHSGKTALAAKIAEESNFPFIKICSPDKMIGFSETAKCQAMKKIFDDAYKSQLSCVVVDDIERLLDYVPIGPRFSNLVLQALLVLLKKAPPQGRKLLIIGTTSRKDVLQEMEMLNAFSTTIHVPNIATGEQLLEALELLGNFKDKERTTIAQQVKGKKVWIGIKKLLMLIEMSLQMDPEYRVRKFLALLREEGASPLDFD
UniProt Q96N67: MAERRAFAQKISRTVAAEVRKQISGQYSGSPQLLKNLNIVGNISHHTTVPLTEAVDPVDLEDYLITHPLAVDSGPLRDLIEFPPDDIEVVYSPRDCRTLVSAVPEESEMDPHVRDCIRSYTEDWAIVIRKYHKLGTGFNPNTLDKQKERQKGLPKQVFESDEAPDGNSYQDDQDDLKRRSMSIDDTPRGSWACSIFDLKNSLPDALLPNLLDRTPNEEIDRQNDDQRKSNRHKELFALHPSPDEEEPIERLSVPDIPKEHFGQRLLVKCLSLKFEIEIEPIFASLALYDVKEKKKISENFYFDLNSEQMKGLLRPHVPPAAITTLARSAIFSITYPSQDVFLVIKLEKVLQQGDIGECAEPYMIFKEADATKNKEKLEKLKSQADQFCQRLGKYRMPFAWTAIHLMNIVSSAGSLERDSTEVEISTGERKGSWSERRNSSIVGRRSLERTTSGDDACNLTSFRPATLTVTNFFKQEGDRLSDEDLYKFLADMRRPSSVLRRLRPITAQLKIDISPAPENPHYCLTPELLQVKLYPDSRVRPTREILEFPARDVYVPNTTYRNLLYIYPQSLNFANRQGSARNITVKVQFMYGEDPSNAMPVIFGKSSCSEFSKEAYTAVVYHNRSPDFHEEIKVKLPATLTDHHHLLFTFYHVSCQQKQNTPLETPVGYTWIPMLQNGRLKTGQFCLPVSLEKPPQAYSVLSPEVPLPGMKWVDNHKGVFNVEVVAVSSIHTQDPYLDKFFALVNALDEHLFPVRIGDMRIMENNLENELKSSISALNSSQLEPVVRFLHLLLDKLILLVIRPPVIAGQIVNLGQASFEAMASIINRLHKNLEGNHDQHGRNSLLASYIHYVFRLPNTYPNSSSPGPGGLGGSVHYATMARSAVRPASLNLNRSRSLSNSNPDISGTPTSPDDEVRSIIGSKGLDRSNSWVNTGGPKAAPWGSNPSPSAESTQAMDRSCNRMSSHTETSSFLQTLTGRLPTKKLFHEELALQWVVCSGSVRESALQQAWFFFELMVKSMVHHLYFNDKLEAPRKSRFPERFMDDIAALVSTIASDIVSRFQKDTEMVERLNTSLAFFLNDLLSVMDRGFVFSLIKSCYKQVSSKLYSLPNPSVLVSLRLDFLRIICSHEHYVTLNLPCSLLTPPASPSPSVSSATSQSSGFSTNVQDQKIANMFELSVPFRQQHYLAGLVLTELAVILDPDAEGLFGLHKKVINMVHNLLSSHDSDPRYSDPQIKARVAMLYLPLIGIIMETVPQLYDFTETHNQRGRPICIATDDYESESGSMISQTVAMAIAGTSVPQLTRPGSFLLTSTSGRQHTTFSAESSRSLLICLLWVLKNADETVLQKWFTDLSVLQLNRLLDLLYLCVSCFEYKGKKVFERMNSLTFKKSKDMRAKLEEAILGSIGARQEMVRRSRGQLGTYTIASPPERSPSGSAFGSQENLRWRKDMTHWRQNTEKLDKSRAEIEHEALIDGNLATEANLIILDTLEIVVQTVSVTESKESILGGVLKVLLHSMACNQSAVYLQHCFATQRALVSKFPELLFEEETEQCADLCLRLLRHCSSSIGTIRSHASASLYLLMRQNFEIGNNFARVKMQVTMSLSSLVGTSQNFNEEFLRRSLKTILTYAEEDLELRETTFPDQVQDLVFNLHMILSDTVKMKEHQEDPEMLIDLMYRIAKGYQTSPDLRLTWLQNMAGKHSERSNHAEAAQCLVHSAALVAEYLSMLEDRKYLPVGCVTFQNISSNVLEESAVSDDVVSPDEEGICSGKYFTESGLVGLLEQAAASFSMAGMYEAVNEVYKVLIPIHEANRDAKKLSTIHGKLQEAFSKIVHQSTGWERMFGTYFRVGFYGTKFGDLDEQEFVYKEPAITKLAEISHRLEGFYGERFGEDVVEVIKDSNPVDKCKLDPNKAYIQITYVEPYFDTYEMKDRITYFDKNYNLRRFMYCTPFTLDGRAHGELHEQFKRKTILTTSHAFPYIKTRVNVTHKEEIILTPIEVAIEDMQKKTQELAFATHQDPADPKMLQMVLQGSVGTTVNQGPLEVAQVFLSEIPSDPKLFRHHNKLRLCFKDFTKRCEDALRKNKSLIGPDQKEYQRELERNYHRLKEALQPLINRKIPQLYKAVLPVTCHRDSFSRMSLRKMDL
UniProt P19838: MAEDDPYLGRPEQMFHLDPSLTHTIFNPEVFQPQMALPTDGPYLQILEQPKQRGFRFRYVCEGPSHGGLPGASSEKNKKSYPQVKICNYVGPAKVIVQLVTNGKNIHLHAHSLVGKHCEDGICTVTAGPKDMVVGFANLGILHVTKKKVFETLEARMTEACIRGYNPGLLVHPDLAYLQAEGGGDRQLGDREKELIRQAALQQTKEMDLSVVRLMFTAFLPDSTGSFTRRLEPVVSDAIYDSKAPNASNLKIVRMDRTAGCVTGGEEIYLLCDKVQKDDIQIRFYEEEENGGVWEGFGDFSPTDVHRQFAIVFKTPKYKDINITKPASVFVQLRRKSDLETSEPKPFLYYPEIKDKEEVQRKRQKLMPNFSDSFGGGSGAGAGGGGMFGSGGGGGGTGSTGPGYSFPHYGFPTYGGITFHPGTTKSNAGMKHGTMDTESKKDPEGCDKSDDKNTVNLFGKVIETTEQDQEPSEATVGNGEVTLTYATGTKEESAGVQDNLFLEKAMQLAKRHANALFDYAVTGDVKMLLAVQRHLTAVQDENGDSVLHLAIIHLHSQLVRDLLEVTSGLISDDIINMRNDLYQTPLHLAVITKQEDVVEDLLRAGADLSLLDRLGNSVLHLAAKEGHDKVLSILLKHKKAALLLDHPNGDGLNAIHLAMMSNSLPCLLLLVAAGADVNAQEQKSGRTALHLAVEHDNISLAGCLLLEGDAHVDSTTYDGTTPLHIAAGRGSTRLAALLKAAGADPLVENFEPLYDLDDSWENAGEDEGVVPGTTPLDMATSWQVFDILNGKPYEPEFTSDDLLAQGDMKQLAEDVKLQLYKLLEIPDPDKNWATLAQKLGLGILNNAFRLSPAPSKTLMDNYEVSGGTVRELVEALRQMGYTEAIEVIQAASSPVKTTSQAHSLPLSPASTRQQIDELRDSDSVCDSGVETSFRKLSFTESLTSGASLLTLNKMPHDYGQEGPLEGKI

The molecules below were run against ATP7A (human (endogenous in SH-SY5Y)) (UniProt Q04656) (assay: affinity purification with mass spectrometry; SH-SY5Y cells pre-treated with 400 uM BCS or 200 uM CuCl2 for 2 hr, cross-linked with DSP; extracts immunoprecipitated with monoclonal ATP7A antibody on magnetic beads without or with 22 uM antigenic ATP7A peptide; eluted with the peptide; label free quantitative mass spectrometry, ratio >2; hits from ATP7A-null fibroblasts removed).
In the case of NSF (from UniProt P46459 1-744), the binding is reported as “binds”.
With DOCK7 (from UniProt Q96N67 1-2140) the binding was “binds”.
NFKB1 (from UniProt P19838 1-968) was tested, and the binding was “binds”.

Target: ATP7A (human (endogenous in SH-SY5Y)) (UniProt Q04656)
Assay: as above
Remark: another data set of the same source
For B1, the binding was “binds”.
For B2, the binding was “binds”.
In the case of B3, the binding is reported as “binds”.
For B4, the binding was “binds”.
In the case of B5, the binding is reported as “binds”.
